{"source": "patent US6015877A", "about": "“Compounds for inhibition of proteolysis” (President and Fellows of Harvard College, priority 1996, dated 2000)", "key": {"[1]": {"test_system": "isoprenylated protein endoprotease", "experiment": "Inhibition of the solubilized / partially purified enzyme by non-halomethyl ketone inhibitors", "type": "biochemical, bovine", "conditions": "CHAPSO-solubilized enzyme after gel filtration"}, "[2]": {"test_system": "isoprenylated protein endoprotease", "experiment": "Inhibition of the isoprenylated protein endoprotease by halomethyl ketones (preincubation, 20-fold dilution, Kitz-Wilson)", "type": "biochemical, bovine", "conditions": "in the presence of 500 nM RPI", "method": "A typical procedure of inhibition is given here to illustrate the details of this procedure. A CHAPSO-solubilized protein preparation (2.5 mg/mL) or a partially […] protein preparation (0.17 mg/mL) was incubated with chloromethyl ketone inhibitors at 37° C. for 30 minutes. Aliquots were removed at timed intervals and diluted with assay buffer E for the solubilized preparation of with assay buffer D for the partially purified protein preparation in 20-fold. The final protein and substrate concentrations were 0.12 mg/mL (or 8.5 μg of partially purified protein preparation per milliliter) and 2.0 μM, respectively, except as otherwise noted; the residual enzyme activity was assayed as described above. TPCK and BFC-CMK were characterized by kinetic measurements. The bimolecular rate constant Kinh /K1 and pseudo-first-order kinetic rate constant Kinh were obtained using the Kitz-Wilson method (Kitz & Wilson, 1962). According to Kitz-Wilson method, the irreversible modification of an enzyme by an active-site directed inhibitor is given by [drawing 9] where K1 =[E]·[I]/[E·I] and -d([E]+[E·I])/dt=Kinh [E·I]. [I] and [E] are inhibitor and enzyme concentrations at a certain time, respectively. Under conditions here [I]>>[Eo ], which is the enzyme concentration at time zero, [I] is constant. […]"}, "[3]": {"test_system": "ras processing", "conditions": "cited from earlier work"}}, "note": "Part of at least one peptide drawing is inferred or uncertain, most often the ends."}
{"smiles": "CC[C@H](C)[C@H](NC(=O)[C@@H](NC[C@H](CSC/C=C(\\C)CC/C=C(\\C)CCC=C(C)C)NC(=O)OC(C)(C)C)C(C)C)C(=O)N[C@@H](CCSC)C(=O)O", "note": "[RPI, N-Boc-S-farnesyl-L-cysteine-.PSI.-(CH2 --NH)-valyl-L-isoleucyl-L-methionine]", "values": [{"measurement": "effect on the major (primary) solubilized peak of activity (in words)", "setting": "[1]", "result": "profoundly inhibited"}, {"measurement": "enzyme activity prevented from inhibition by TPCK", "setting": "[2]", "result": 82, "unit": "%"}, {"measurement": "effect on ras processing in vivo (in words)", "setting": "[3]", "result": "blocks ras processing in vivo"}]}
